Measurements reported in patent US12605468B2, “Oxazine-based fluorophore compounds for nerve-specific imaging” (Oregon Health & Science University, priority 2020, dated 2026).
At least one structure is not confirmed: it was looked up by name or label, or the drawing left a doubt.

assay: Absorption and fluorescence emission spectra of oxazine derivatives in PBS; assay type: physicochemical; conditions: not given

Compound	Brightness [M⁻¹ cm⁻¹]	FWHMabs [nm]	FWHMem [nm]	Stokes Shift [nm]	Φ	ε	λabs [nm]	λem [nm]
CCN1CCOc2cc3nc4ccc(=[N+]5CCC5)cc-4oc3cc21 [LGW14-42, 1-(4-ethyl-3,4-dihydro-[1,4]oxazino[2,3-b]phenoxazin-8(2H)-ylidene)azetidin-1-ium]	7.62	76	46	25	0.14	56,000 M^−1 cm^−1	654	679
CC/[N+](C)=c1\ccc2nc3ccc(N4CCC4)cc3oc-2c1 [LGW14-51, (E)-N-(7-(azetidin-1-yl)-3H-phenoxazin-3-ylidene)-N-methylethanaminium]	4.28	76	42	21	0.10	42,000 M^−1 cm^−1	644	665
CCN(CC)c1ccc2nc3ccc(=[N+]4CCC4)cc-3oc2c1 [LGW13-79, 1-(7-(diethylamino)-3H-phenoxazin-3-ylidene)azetidin-1-ium]	4.27	72	41	21	0.08	54,700 M^−1 cm^−1	648	669

Now from value to molecule:

Brightness [M⁻¹ cm⁻¹]	FWHMabs [nm]	FWHMem [nm]	Stokes Shift [nm]	Φ	ε	λabs [nm]	λem [nm]	Compound
6.35	78	47	26	0.14	46,700 M^−1 cm^−1	651	677	CN1CCOc2cc3nc4ccc(=[N+]5CCC5)cc-4oc3cc21 [LGW14-47, 1-(4-methyl-3,4-dihydro-[1,4]oxazino[2,3-b]phenoxazin-8(2H)-ylidene)azetidin-1-ium]
10.00	76	43	22	0.20	50,000 M^−1 cm^−1	647	669	c1cc2nc3ccc(=[N+]4CCC4)cc-3oc2cc1N1CCCC1 [LGW14-83, 1-(7-(pyrrolidin-1-yl)-3H-phenoxazin-3-ylidene)azetidin-1-ium]

same assay, conditions: FIGS. 1A-1F

Compound	absorption and emission relative to the NIR window
CCN1CCOc2cc3nc4ccc(=[N+]5CCC5)cc-4oc3cc21 [LGW14-42, 1-(4-ethyl-3,4-dihydro-[1,4]oxazino[2,3-b]phenoxazin-8(2H)-ylidene)azetidin-1-ium]	both absorbing and emitting in the NIR
